Laboratory results published in publication PMC11229311, “Structural and functional investigation of the DHH/DHHA1 family proteins in Deinococcus radiodurans” (Nucleic Acids Research, 2024).
These are yes or no findings as the source states them, for the method shown.

Target: DrRecJ-like dimerization-defect mutant DrRecJ-like^m (F185A, Y213A, L220A) (Deinococcus radiodurans) (UniProt Q9RW43)
Assay: SEC; analytical gel filtration, Superdex 75 10/300 GL, 20 mM Tris pH 8.0, 100 mM NaCl, 1 mM TCEP; 300 ul of 1 mM protein loaded; calibrated with protein standards (6.5-75 kDa); both purified

binding: no binding (tested: 1 mM)
B1: DrRecJ-like dimerization-defect mutant DrRecJ-like^m (F185A, Y213A, L220A) (enzyme, UniProt Q9RW43 1-338)
chain: MTAENSATPDYRRNVGAVADALLAHPGPIVVLSHENPDGDALGSVLGLSRALRTLGKTVLAPMTVPHYLSFLPQPGELTAPLESWPQGALAAVLDVDNNDPVRVAGADLTQFDGPVVNVDHHGTNLRRADAGVVDPSKPAAAMMVADVIDALGAPWSEAVATPLMLGLNTDTGNFAFDSVSAETAECAARLRAHGARIGWLNDQMRQNPQSYALLLREVAGKLEFLHGGRVVQTRVDEEMLARAGATWEQVENYVSMLRNAEGAQLAVMAKDYGDRVKFSLRSRGPVSAQNIAVALGGGGHVPAAGATVISSYAEARARLDAAIEAELARVDAQATAE
